We go through four molecules from article doi:10.1101/2023.11.21.567992.

Results are given in words; binding and its absence hold for the method and conditions named. Binding seen in cells or lysates may run through a third protein. Here binding means that the protein was enriched with, or labelled near, the bait; the list need not be complete. Where a sequence is shown, tags or fusion partners need not be part of it.

First the molecules themselves.
T1: FLAG-TurboID-Nek2A (UniProt P51955)
T1 sequence: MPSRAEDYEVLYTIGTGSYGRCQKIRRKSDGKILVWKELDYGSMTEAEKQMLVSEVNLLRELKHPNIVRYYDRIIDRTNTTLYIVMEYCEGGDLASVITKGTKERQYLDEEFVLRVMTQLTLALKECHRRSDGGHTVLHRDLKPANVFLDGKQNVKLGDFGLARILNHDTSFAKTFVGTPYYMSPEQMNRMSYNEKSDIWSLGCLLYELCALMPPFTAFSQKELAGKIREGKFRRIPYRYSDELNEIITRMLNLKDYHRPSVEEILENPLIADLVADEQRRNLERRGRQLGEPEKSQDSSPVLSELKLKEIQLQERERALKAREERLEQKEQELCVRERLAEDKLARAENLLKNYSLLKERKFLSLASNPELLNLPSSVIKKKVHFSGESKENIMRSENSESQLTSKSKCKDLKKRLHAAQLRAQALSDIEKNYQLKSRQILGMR

B1: LRRC45 (protein, UniProt Q96CN5 1-670)
chain: MEEFRRSYSRLCRESGAEPQEAVLQQLHQLPRGRLDLATQSLTVETCRALGKLLPRETLCTELVLSDCMLSEEGATLLLRGLCANTVLRFLDLKGNNLRAAGAEALGKLLQQNKSIQSLTLEWNSLGTWDDAFATFCGGLAANGALQRLDLRNNQISHKGAEELALALKGNTTLQQLDLRWNNVGLLGGRALMNCLPSNRTLWRLDLAGNNIPGDVLRAVEQAMGHSQDRLTTFQENQARTHVLSKEVQHLREEKSKQFLDLMETIDKQREEMAKSSRASAARVGQLQEALNERHSIINALKAKLQMTEAALALSEQKAQDLGELLATAEQEQLSLSQRQAKELKLEQQEAAERESKLLRDLSAANEKNLLLQNQVDELERKFRCQQEQLFQTRQEMTSMSAELKMRAIQAEERLDMEKRRCRQSLEDSESLRIKEVEHMTRHLEESEKAMQERVQRLEAARLSLEEELSRVKAAALSERGQAEEELIKAKSQARLEEQQRLAHLEDKLRLLAQARDEAQGACLQQKQVVAEAQTRVSQLGLQVEGLRRRLEELQQELSLKDQERVAEVSRVRVELQEQNGRLQAELAAQEALREKAAALERQLKVMASDHREALLDRESENASLREKLRLREAEIARIRDEEAQRASFLQNAVLAYVQASPVRTLSPPK
B2: KIF2C (protein, UniProt Q99661 1-725)
chain: MAMDSSLQARLFPGLAIKIQRSNGLIHSANVRTVNLEKSCVSVEWAEGGATKGKEIDFDDVAAINPELLQLLPLHPKDNLPLQENVTIQKQKRRSVNSKIPAPKESLRSRSTRMSTVSELRITAQENDMEVELPAAANSRKQFSVPPAPTRPSCPAVAEIPLRMVSEEMEEQVHSIRGSSSANPVNSVRRKSCLVKEVEKMKNKREEKKAQNSEMRMKRAQEYDSSFPNWEFARMIKEFRATLECHPLTMTDPIEEHRICVCVRKRPLNKQELAKKEIDVISIPSKCLLLVHEPKLKVDLTKYLENQAFCFDFAFDETASNEVVYRFTARPLVQTIFEGGKATCFAYGQTGSGKTHTMGGDLSGKAQNASKGIYAMASRDVFLLKNQPCYRKLGLEVYVTFFEIYNGKLFDLLNKKAKLRVLEDGKQQVQVVGLQEHLVNSADDVIKMIDMGSACRTSGQTFANSNSSRSHACFQIILRAKGRMHGKFSLVDLAGNERGADTSSADRQTRMEGAEINKSLLALKECIRALGQNKAHTPFRESKLTQVLRDSFIGENSRTCMIATISPGISSCEYTLNTLRYADRVKELSPHSGPSGEQLIQMETEEMEACSNGALIPGNLSKEEEELSSQMSSFNEAMTQIRELEEKAMEELKEIIQQGPDWLELSEMTEQPDYDLETFVNKAESALAQQAKHFSALRDVIKALRLAMQLEEQASRQISSKKRPQ
B3: KIFC1 (protein, UniProt Q9BW19 1-673)
chain: MDPQRSPLLEVKGNIELKRPLIKAPSQLPLSGSRLKRRPDQMEDGLEPEKKRTRGLGATTKITTSHPRVPSLTTVPQTQGQTTAQKVSKKTGPRCSTAIATGLKNQKPVPAVPVQKSGTSGVPPMAGGKKPSKRPAWDLKGQLCDLNAELKRCRERTQTLDQENQQLQDQLRDAQQQVKALGTERTTLEGHLAKVQAQAEQGQQELKNLRACVLELEERLSTQEGLVQELQKKQVELQEERRGLMSQLEEKERRLQTSEAALSSSQAEVASLRQETVAQAALLTEREERLHGLEMERRRLHNQLQELKGNIRVFCRVRPVLPGEPTPPPGLLLFPSGPGGPSDPPTRLSLSRSDERRGTLSGAPAPPTRHDFSFDRVFPPGSGQDEVFEEIAMLVQSALDGYPVCIFAYGQTGSGKTFTMEGGPGGDPQLEGLIPRALRHLFSVAQELSGQGWTYSFVASYVEIYNETVRDLLATGTRKGQGGECEIRRAGPGSEELTVTNARYVPVSCEKEVDALLHLARQNRAVARTAQNERSSRSHSVFQLQISGEHSSRGLQCGAPLSLVDLAGSERLDPGLALGPGERERLRETQAINSSLSTLGLVIMALSNKESHVPYRNSKLTYLLQNSLGGSAKMLMFVNISPLEENVSESLNSLRFASKVNQCVIGTAQANRK

For the test, the target named is T1, FLAG-TurboID-Nek2A. As to the kind of experiment: proximity labelling.
Turning to CROCC (from UniProt Q5TZA2 1-2017), the binding entry is recorded as “binds”. For the molecule B1, the binding result is reported as “binds”. With B2, the binding result is on record as “binds”. Take B3: the binding result is “binds”.
